111 compounds from the supplement of paper PMC4683952 can be followed below.

The list shows a part of the results. No stated cut-off is given here; in the data, active = 2 or more and inactive = the rest. Single values are uncertain here, since repeats match poorly.

The test system of this experiment is Lgr5 (MarsCy1-Lgr5-EGFP, U2OS). The experiment is described as follows: cell-surface Lgr5 expression (SCi1 fluorescence, background-subtracted) relative to WT DMSO (fold of DMSO control); higher = more Lgr5 at the plasma membrane. Particulars: U2OS MarsCy1-Lgr5-EGFP stable; treatment time: overnight; library: ActiProbe-5K (TimTec); 25 µM.
Take `CN1CCc2cc(CO)sc2C1`: the “cell-surface Lgr5 expression” value was inactive: 1.19.
As to `O=[N+]([O-])c1ccc2c(c1)oc1ccc(S(=O)(=O)N3CCOCC3)cc12`, the “cell-surface Lgr5 expression” value is inactive: 0.91.
With `O=C1NC(=S)S/C1=C\c1ccsc1`, the “cell-surface Lgr5 expression” value is inactive: 1.01.
For the compound `CCOC(NC(C)=O)C(NC(C)=O)OCC` (stereo unspecified), the “cell-surface Lgr5 expression” value was inactive: 1.39.
The same measure for `CN1C(=O)C(CCCNC(=N)N)NC1=S` (stereo unspecified): inactive: 0.907; for `Cn1cc([N+](=O)[O-])c(C(=O)O)n1`: inactive: 1.3.
In the case of `CC(CN1CCOCC1)C(=O)NN` (stereo unspecified), the “cell-surface Lgr5 expression” value is inactive: 1.17.
`c1n[nH]c(NCc2ccc3c(c2)OCO3)n1`: the “cell-surface Lgr5 expression” value was inactive: 1.21.
The figure for `O=c1[nH]c2ccc(S(=O)(=O)N3CCCC3)cc2[nH]1` is inactive: 1.38.
Regarding `Fc1cccc2c1N[C@@H](c1c3ccccc3cc3ccccc13)[C@H]1CC=C[C@@H]21`, the “cell-surface Lgr5 expression” value is inactive: 1.04.
As to `COc1cc(S(N)(=O)=O)c(OC)cc1Cl`, the “cell-surface Lgr5 expression” value was inactive: 1.2.
The figure for `O=C1Nc2ccccc2/C1=N/c1ccc(SC(F)F)cc1` is inactive: 1.08; for `O=c1c2c(oc3c1CCCC3)CCCC2` it is inactive: 0.885; for `N#Cc1sc2nc3c(cc2c1N)CCCC3` it is inactive: 1.45.
On to `N#C/N=C(\Nc1ccccc1)SCc1ccccn1`, for which the “cell-surface Lgr5 expression” value is inactive: 1.13.
The same measure for `CC(C)NC(=O)CSc1nc2[nH]c(=O)cc(O)c2s1`: inactive: 1.05; for `NC(=O)c1c(NC(=O)C2C3C=CC(C3)C2C(=O)O)sc2c1CCCC2` (stereo unspecified): inactive: 1.35; for `CC12CCC(C(=O)N(CN3CCCCC3)C1=O)C2(C)C` (stereo unspecified): inactive: 1.1.
For `CC(C)Oc1ccc(Oc2nc(NC3CC3)nc(N(C)C)n2)nn1`, the “cell-surface Lgr5 expression” value is inactive: 1.16.
The figure for `C/C(=N/NC(=O)c1cccs1)c1ccc(Br)s1` is inactive: 1.16.
The same measure for `COc1ccc(Cl)cc1NN`: inactive: 1.2; for `CCSc1nc(C)c(Cl)c(C)c1C#N`: inactive: 0.968.
The same measure for `Clc1ncccc1/N=N/c1cccnc1Cl`: inactive: 0.725.
Take `CN1C(=O)C(CO)NC1=S` (stereo unspecified): the “cell-surface Lgr5 expression” value was inactive: 1.46.
The figure for `CC1(C)C(=O)OC(c2ccco2)C2(CCCCC2)C1=O` (stereo unspecified) is inactive: 1.4; for `CCC(Cn1ccnc1)[N+](=O)[O-]` (stereo unspecified) it is inactive: 1.12; for `C=CCn1c(C)nnc1S` it is inactive: 1.09.
The same measure for `CCOC(=O)N1CCN(C(=O)N2CCOCC2)CC1`: inactive: 1.01.
The figure for `Cc1ccc2nc(=O)c3cc(F)c(F)c(F)c3n2c1` is inactive: 0.54.
As for `O=S(=O)(NC1C2CC3CC(C2)CC1C3)c1ccccc1` (stereo unspecified), the “cell-surface Lgr5 expression” value is inactive: 1.27.
As to `CS(=O)(=O)Nc1ccc(Cl)cc1Cl`, the “cell-surface Lgr5 expression” value is inactive: 1.02.
The same measure for `COc1ccc2c(c1)sc(=N)n2CCO`: inactive: 0.888.
On to `Oc1c(Br)cc(Br)cc1/C=N\c1cc(Cl)cc(Cl)c1`, for which the “cell-surface Lgr5 expression” value was inactive: 1.05.
The figure for `Oc1ccc(Cl)cc1C1=NOC(O)(C(F)(F)F)C1` (stereo unspecified) is inactive: 1.22; for `CSc1ccc(C2Nc3cccc4cccc(c34)N2)cc1` it is inactive: 0.905; for `Nc1nonc1C(=O)N1CCCCC1` it is inactive: 1.03.
For the compound `Cc1ccsc1/C=C1\SC(=N)NC1=O`, the “cell-surface Lgr5 expression” value is inactive: 1.04.
With `c1cc2nsnc2cc1COc1ccc2c(c1)CCCC2`, the “cell-surface Lgr5 expression” value is inactive: 1.05.
For the compound `N#CC1C2(CCCC2)C1(C#N)C(N)=O` (stereo unspecified), the “cell-surface Lgr5 expression” value was inactive: 1.42.
Consider `O=C(O)CCC1NC(=O)NC1=O` (stereo unspecified), for which the “cell-surface Lgr5 expression” value was inactive: 1.12.
For `C=CCSc1nc2[nH]c(=O)cc(O)c2s1`, the “cell-surface Lgr5 expression” value was inactive: 1.2.
The figure for `CC(C)(C)C(=O)c1sc2nc3c(c(-c4cccs4)c2c1N)CCC3` is inactive: 1.31; for `CC(/C=N\n1c(S)nnc1C1CCCCC1)=C/c1ccco1` it is inactive: 1.03; for `O=S(=O)(c1ccsc1)c1ccsc1` it is inactive: 1.17.
The figure for `C=C1CN=C(N(C(=O)Nc2ccccc2)c2ccc(F)cc2F)S1` is inactive: 1.84; for `O=C1NC(=S)N/C1=C/c1ccc(-c2ccc3c(c2)COC3=O)o1` it is inactive: 1.17.
As for `Cc1n[nH]c(=O)nc1NC1CCCCC1`, the “cell-surface Lgr5 expression” value is inactive: 1.18.
The same measure for `COC(=O)N[C@@H]1CSC[C@@H]1O`: inactive: 1.33; for `CC12C=CC(=O)C=C1CCC1C3CC(O)C(O)(C(=O)CO)C3(C)CC(O)C12F` (stereo unspecified): inactive: 1.48; for `O=C(O)C1C2C=CC(C2)C1C(=O)NCCN1CCOCC1` (stereo unspecified): inactive: 1.26.
The same measure for `CO/N=C(\C(=O)NC1C(=O)N2C(C(=O)[O-])=C(COC(C)=O)CSC12)c1csc(N)n1.[Na+]` (stereo unspecified): inactive: 1.01.
`CC(C)(C)Sc1cccc2ccccc12`: the “cell-surface Lgr5 expression” value was inactive: 1.24.
The figure for `O=C(NC1CCCCC1)c1occ2c1OCCO2` is inactive: 1.02.
The figure for `CC(C)(C)S(=O)(=O)c1ccsc1S(C)(=O)=O` is inactive: 1.37; for `CC1(C)C2CCC1(C)C(NC(=O)CSc1nnc(N)s1)C2` (stereo unspecified) it is inactive: 1.3.
The figure for `NS(=O)(=O)c1ccc(-n2cccc2/C=N\n2cnnc2)cc1` is inactive: 1.11; for `CC(C)(C)c1ccc2c(c1)OCCOCCOCCO2` it is inactive: 1.
In the case of `Cn1c(=O)c2c(nc(-n3ccnc3)n2C)n(C)c1=O`, the “cell-surface Lgr5 expression” value is inactive: 1.22.
The same measure for `NC(=O)CNc1n[nH]c(=O)[nH]c1=O`: inactive: 0.829; for `CC(=O)NC1(C)CCCCC1`: inactive: 0.979.
The same measure for `COc1ccc2c(c1)C(C)=CC(C)(C)N2`: inactive: 1.19; for `N#Cc1ccc(-c2cccs2)[nH]c1=S`: inactive: 1.19.
The same measure for `C(=N/N1CCN(C2c3ccccc3-c3ccccc32)CC1)/c1ccccn1`: inactive: 0.806; for `Cn1cnc2[nH]c(=O)[nH]c(=O)c21`: inactive: 1.05.
With `OC1CCCc2c1[nH]c1ccc(C(F)(F)F)cc21` (stereo unspecified), the “cell-surface Lgr5 expression” value is inactive: 1.09.
The figure for `Cc1oc2c(Cl)c(Cl)c(O)cc2c1[N+](=O)[O-]` is inactive: 1.3.
The figure for `Clc1ccc2c(c1)C1C=CCC1C(c1cccc3ccccc13)N2` (stereo unspecified) is inactive: 1.02.
Consider `CCc1nc2[nH]nc(N)c2c2c1COC(C)(C)C2`, for which the “cell-surface Lgr5 expression” value was inactive: 1.32.
The figure for `Cc1c(-c2n[nH]cc2Br)cnn1C` is inactive: 1.11; for `FC(F)(F)c1ccc(/C=N\n2c(S)nnc2C2CCCCC2)cc1` it is inactive: 0.958.
The same measure for `O=C(Oc1nsnc1N1CCOCC1)N1CCOCC1`: inactive: 1.13; for `O=C1NCCN1C(=O)Nc1ccc(Cl)c(Cl)c1`: inactive: 1.2; for `NCCCN1CCc2ccccc21`: inactive: 0.928.
As to `C[n+]1c(/C=C\Nc2ccccc2)sc2ccccc21.[Cl-]`, the “cell-surface Lgr5 expression” value was inactive: 1.97.
The same measure for `C=CCNC(=S)NNC(=O)C(CCC(C)C)CC(C)(C)O` (stereo unspecified): inactive: 0.952; for `CN(C)c1ccc2nc3c(C(=O)O)cc(=O)c(O)c-3oc2c1`: active: 2.23; for `CC1CN(S(C)(=O)=O)CC(C)O1` (stereo unspecified): inactive: 1.1.
In the case of `C=CCNC(=O)c1scc2c1CCCC2`, the “cell-surface Lgr5 expression” value was inactive: 0.921.
The same measure for `CS(=O)(=O)Nc1ccc(S(=O)(=O)N2CCOCC2)cc1`: inactive: 1.05; for `O=C1NCCN1C(=O)Nc1nc(=S)ss1`: inactive: 0.97.
Regarding `Cc1cc(-c2[nH]c(=O)[nH]c2-c2cc(C)sc2C)c(C)s1`, the “cell-surface Lgr5 expression” value was inactive: 1.24.
The figure for `CC(C)(C)c1cc(Cc2cc(C(C)(C)C)c(O)c(C(C)(C)C)c2)c(O)c(C(C)(C)C)c1` is inactive: 1.29.
The figure for `CCCCCCCn1c(SCC(C)C)nc2c1c(=O)[nH]c(=O)n2C` is inactive: 1.6; for `COC(=O)NNC(=O)C1CCCCC1` it is inactive: 0.882.
Turning to `CC(C)(O)/C(=C/C#N)n1cccn1`, the “cell-surface Lgr5 expression” value is inactive: 0.979.
The figure for `COC(=O)C1=C(C(=O)OC)SC2(S1)C(C(=O)OC)=C(C(=O)OC)SC1=C2c2cc(OC)ccc2NC1(C)C` is inactive: 1.37; for `CC1=NN(C(C#N)c2ccc(Cl)c(Cl)c2)C(C)(C)C1` (stereo unspecified) it is inactive: 1.21; for `O=C(CCCC(=O)OCC(F)(F)C(F)F)NC1CCCCC1` it is inactive: 1.13.
With `COC(=O)c1ccc(=O)oc1`, the “cell-surface Lgr5 expression” value was inactive: 1.52.
For the compound `Cc1cc(C)nc(SC/C(N)=N/O)n1`, the “cell-surface Lgr5 expression” value was inactive: 1.02.
The same measure for `CC1CC(O)(/C=C/C2(O)CCCCC2)C(C)CN1C` (stereo unspecified): inactive: 1.01; for `C(/C#N)(C#N)=C/Nc1cc(Cl)ccc1Cl`: inactive: 1; for `NC(=O)c1cc(C2(O)CCCCC2)on1`: inactive: 0.947.
Turning to `CCOCC(O)CSc1nc(C)cc(C)n1` (stereo unspecified), the “cell-surface Lgr5 expression” value is inactive: 1.04.
As to `COc1cc(-c2oc3cc(O)cc(O)c3c(=O)c2O)cc(OC)c1OC`, the “cell-surface Lgr5 expression” value is inactive: 0.708.
As to `O=C1CSc2nc3ccccc3n21`, the “cell-surface Lgr5 expression” value was inactive: 1.16.
The figure for `CSc1sc(C)cc1/C=N\O` is inactive: 1.16; for `C=COCC[NH2+]Cc1ccc(Cl)s1.[Cl-]` it is inactive: 1.1.
On to `C=CCn1c(S)nnc1C12CC3CC(CC(C3)C1)C2`, for which the “cell-surface Lgr5 expression” value is inactive: 0.955.
The figure for `Clc1cccc2nnc(-c3ccc(Br)cc3)n12` is inactive: 1.02.
In the case of `CCOC(=O)c1cn2nc(OS(C)(=O)=O)cc2nc1C`, the “cell-surface Lgr5 expression” value is inactive: 1.51.
The figure for `CC1CN(C(=O)N2CCOCC2)CC(C)O1` (stereo unspecified) is inactive: 1.13; for `N#Cc1c(-c2ccccc2)cc(-c2ccccc2)nc1SCc1ccccc1` it is inactive: 0.975; for `CC1CN(C(=O)c2scc3c2OCCO3)CC(C)O1` (stereo unspecified) it is inactive: 1.37.
Take `N#Cc1c2c(n[nH]c1=O)C(=O)c1ccccc1-2`: the “cell-surface Lgr5 expression” value was inactive: 0.388.
With `Nc1ccc2c(c1)SSc1cc(N)ccc1-2`, the “cell-surface Lgr5 expression” value is inactive: 1.25.
On to `N#CC12CC3CC(C1)CC(C#N)(C3)C2`, for which the “cell-surface Lgr5 expression” value is inactive: 1.16.
The same measure for `c1(cc(c(C)c(o1)=O)CC)/C=C(/Cl)Cl`: inactive: 1.21; for `CC1CCc2cc(F)ccc2N1C(=S)NCC1CCCO1` (stereo unspecified): inactive: 1.35; for `O=C(NC1=NN(C(=O)Nc2ccccc2)C2(CCCC2)S1)Nc1ccccc1`: inactive: 0.669.
Turning to `O=C(NC1CCCCC1)c1c(O)c2c([nH]c1=O)CCCC2`, the “cell-surface Lgr5 expression” value was inactive: 1.23.
